Measured values reported in US6951883B2, “2H-1-benzopyran derivatives processes for their preparation and pharmaceutical compositions thereof” (Chiesi Farmaceutici S.p.A., priority 2001, dated 2005).
Some entries share one result that the patent states for a list of compounds.

Test system: OVX rats
Test: Four-week OVX rat assay, bone mineral density (lumbar spine L1-4) by DEXA
Format: in vivo
Settings: at 1 and 10 mg/kg·day; compared to Compound II
Method: Effects in the Ovariectomized (OVX) Rat Model
The experiments have been conducted according to Kaln D N, Bone Mineral 15, 175-192, 1991 and Grese T A et al J Med Chem 40, 146-167, 1997.
The effects of the tested compounds were evaluated also in 9-11-month-old OVX rats that were dosed for 4 weeks post-surgery and compared with OVX and Sham controls.
Tissue-specific estrogen agonist effects were examined utilizing uterine weight, uterine histology, uterine eosinophil peroxidase activity (EPO), bone mineral density (BMD), and serum cholesterol levels as end points.
Effect on Bone Mineral Density (BMD) (Lumbar Spine L1-4)
Bone mineral density (BMD) was measured by DEXA (Dual Energy XRay Absorptiometry) using a Hologic QDR-1000 plus instrument equipped with dedicated software for small animal measurements. An ultrahigh-resolution mode (line spacing 0.0254 cm and resolution 0.0127 cm) was used with a collimator of 0.63 mm diameter. This technique provides an integrated measure of both cortical and trabecular bone.
In vivo DEXA measurements were carried out immediately before surgery (baseline scan) and 4 weeks after surgery. The anatomic region examined was the lumbar spine L1-4. […]
Percent protection was calculated by the following formula: % protection=[(% chance BMDtest compound−% chance BMDOVX control)/(% chance BMDsham control−% chance BMDOVX control)]×100.

| SMILES | % protection of BMD |
| --- | --- |
| COc1ccc2c(c1)OC(C)(C)[C@@H](c1ccccc1)[C@@H]2c1ccc(OCCN2CCCC2)cc1 [levormeloxifene] | 50-60% |
| O=C(c1ccc(OCCN2CCCCC2)cc1)c1c(-c2ccc(O)cc2)sc2cc(O)ccc12 [raloxifene] | 50-60% |
